Results published in paper PMC7820456.
Results are given in words; binding and its absence hold for the method and conditions named. In cells and extracts the contact can be indirect. Some entries that bind do so weakly or less than the wild type.

Biological target: T1, transcription factor 7-like 2 (mouse (endogenous in STC-1)), Q924A0
T1 chain: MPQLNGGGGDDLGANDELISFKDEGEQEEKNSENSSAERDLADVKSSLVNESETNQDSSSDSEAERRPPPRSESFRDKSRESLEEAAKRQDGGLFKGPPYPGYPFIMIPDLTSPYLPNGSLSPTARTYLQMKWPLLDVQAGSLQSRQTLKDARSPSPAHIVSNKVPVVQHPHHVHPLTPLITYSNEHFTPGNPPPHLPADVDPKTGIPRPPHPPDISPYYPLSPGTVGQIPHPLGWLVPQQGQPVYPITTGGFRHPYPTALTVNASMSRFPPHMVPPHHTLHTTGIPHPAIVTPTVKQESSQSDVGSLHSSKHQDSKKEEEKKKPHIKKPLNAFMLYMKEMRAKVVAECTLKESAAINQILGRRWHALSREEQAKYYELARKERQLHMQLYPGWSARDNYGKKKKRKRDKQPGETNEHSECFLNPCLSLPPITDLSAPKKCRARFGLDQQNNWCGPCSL
Test: co-IP; lysates of 4 x 10^5 STC-1 cells transfected with miR-194 inhibitor or NC; anti-TCF7L2 antibody 12 h, Protein A/G PLUS agarose 6 h; western blot for β-catenin; both proteins endogenous
Conditions: remark: other sources report otherwise

B1: beta-catenin, Q02248 1-781 (protein)
chain: MATQADLMELDMAMEPDRKAAVSHWQQQSYLDSGIHSGATTTAPSLSGKGNPEEEDVDTSQVLYEWEQGFSQSFTQEQVADIDGQYAMTRAQRVRAAMFPETLDEGMQIPSTQFDAAHPTNVQRLAEPSQMLKHAVVNLINYQDDAELATRAIPELTKLLNDEDQVVVNKAAVMVHQLSKKEASRHAIMRSPQMVSAIVRTMQNTNDVETARCTAGTLHNLSHHREGLLAIFKSGGIPALVKMLGSPVDSVLFYAITTLHNLLLHQEGAKMAVRLAGGLQKMVALLNKTNVKFLAITTDCLQILAYGNQESKLIILASGGPQALVNIMRTYTYEKLLWTTSRVLKVLSVCSSNKPAIVEAGGMQALGLHLTDPSQRLVQNCLWTLRNLSDAATKQEGMEGLLGTLVQLLGSDDINVVTCAAGILSNLTCNNYKNKMMVCQVGGIEALVRTVLRAGDREDITEPAICALRHLTSRHQEAEMAQNAVRLHYGLPVVVKLLHPPSHWPLIKATVGLIRNLALCPANHAPLREQGAIPRLVQLLVRAHQDTQRRTSMGGTQQQFVEGVRMEEIVEGCTGALHILARDVHNRIVIRGLNTIPLFVQLLYSPIENIQRVAAGVLCELAQDKEAAEAIEAEGATAPLTELLHSRNEGVATYAAAVLFRMSEDKPQDYKKRLSVELTSSLFRTEPMAWNETADLGLDIGAQGEALGYRQDDPSYRSFHSGGYGQDALGMDPMMEHEMGGHHPGADYPVDGLPDLGHAQDLMDGLPPGDSNQLAWFDTDL
In the case of B1, the binding is reported as “binds”.
